Hit rate of the full screen: of about 53,000 sequences, about 3,700 (7%) were called active.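 The calls were made as follows: active = gene knockdowns whose robust z-score for IL-1 alpha signal is at least 2 or at most -2, so actives lie on both sides; inactive = the rest.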 The list shows a part of the results.
Experiment: Components of the Cytosolic LPS Sensing Pathway: Gene Identification via Genome-wide siRNA Screen;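 also: robust z of the log signal after scaling to non-targeting control siRNA wells of the plate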
Settings: RAW264.7 macrophages, IL-1a HTRF, actives lie on both sides, screened at 100 nM (by protocol), cells primed 5 h with Pam3CSK4 first
In short: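 Read-out: IL-1a HTRF on supernatant, divided by plate negative-control median ×100, log-transformed and converted to robust z-score. Cells were RAW264.7 given 100 nM siRNA, Pam3CSK4-primed 5 hours, then LipidA-transfected 24 hour.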

| Sequence | z-score |
| --- | --- |
| GCUCUAUGUCAGAAACCAGTT against C4bp | inactive: -0.338 |
| CCUUUGGUGAAGCCUGGAUTT against Kiss1 | inactive: -0.0609 |
| GCGGAAAAGGGAGUUGCCUTT against Hand1 | inactive: -1.79 |
| GCAGUCUUAAUUCAUGGUGTT against Slco6c1 | inactive: 0.183 |
| GCUGAAGCAUGCCCGUAAUTT against Racgap1 | inactive: -0.191 |
| GGACUCUCAGAAGAAUGAUTT against Hmmr | active: 2.98 |
| GGAGCUGGAUUCAUUGACGTT against Chil4 | inactive: 0.612 |
| GUGACUCCCAAACUCCUGATT against Olfr1180 | inactive: -1.81 |
| CCUAAAGUCUGAAUGUUCCTT against Il3 | inactive: -0.421 |
| GGGUGAUGAUCUUCAGCAATT against Txnrd3 | inactive: -0.616 |
| GGUUUUUGAACUGGUAAGATT against Olfr725 | inactive: -1.34 |
| CGAGAGAUGUAACAAAAAGTT against Sele | inactive: 0.446 |
| GGUUCAAGGCAACACUGUGTT against Ankrd13d | inactive: -1.54 |
| GCUCGAGUACCUGUACCUATT against Elfn1 | active: 3.11 |
| GGCCCACAAGUACCGUUACTT against Gcat | inactive: -0.317 |
| CCCAAUCACUUAUUGAAACTT against Vcan | inactive: 1.07 |
| GGCUGAAGUUAUCCUGCCATT against Antxrl | inactive: 1.97 |
| CCAAAGUGGACACAAUUGCTT against Ephb6 | inactive: -1.43 |
| GCUGUCUCAAUCACCCUAATT against Olfr1427 | inactive: -1.23 |
| GGCCAAGAACUCCAAGCAUTT against Ercc6 | inactive: -1.15 |
| GGGUAAAGACCUCAAUGAATT against Slitrk1 | inactive: -1.09 |
| GGACUUCCUAAGCAACUCATT against Mycs | inactive: 0.486 |

| Sequence | z-score |
| --- | --- |
| CCUUCCACAAAUACUCAGGTT against S100a4 | inactive: 0.562 |
| CCAGUUUAUCACAUAACCUTT against Wasl | inactive: -0.928 |
| CCAUCUUGAAUUACCUCCGTT against Tnfaip1 | inactive: -1.04 |
| GGAUGAAGAUGGAGAUCUUTT against Tfg | active: 2.14 |
| GCUCUACUUGUAUAUGCCCTT against Sdr16c5 | inactive: 0.61 |
| GGACUCCCUUACUUUAUUATT against Mertk | inactive: -0.367 |
| GGGAAAACAGAAGAGUUUGTT against Ctr9 | inactive: -0.454 |
| GGGCGAACAGGACAAUUAUTT against Med22 | inactive: -0.421 |
| GCUGAAAUCAGAAGCUAACTT against Casc3 | inactive: -0.468 |
| GCCGUCUUGUGUGUAUCAATT against Olfr1342 | inactive: -0.186 |
| UUCACUUUUUCACUGGAAUTT against Olfr1228 | inactive: -0.264 |
| CGGCAGAUACUGAUACUGCTT against Actn1 | inactive: 1.58 |
| GGAACCUGUUUGUUUAUCATT against Adap2 | inactive: 1.18 |
| GGGAGAUGUUUGUUUUCAATT against Mmp16 | active: 3.52 |
| GGGACGACCAUAUUUAUUUTT against Psma2 | inactive: -1.58 |
| GGGAAAUUGGUGCUACAUGTT against Eln | inactive: 0.272 |
| GGGUCAUUGAUAUCUUAAGTT against Bcl3 | inactive: 0.594 |
| GCUCAAACAGAUACACGGATT against Ap2a2 | inactive: -0.346 |
| GGCUGAGAAAGAAAUUAGGTT against Naip3 | inactive: -0.129 |
| GGAUCAUACCAUACUGGCCTT against Tppp | inactive: 0.0222 |
| GCUGAAACCCUUCGUACAGTT against Prl8a8 | inactive: 0.391 |
| GAGGUUUAUUGUAAUGGCUTT against Olfr1271 | inactive: 0.177 |

| Sequence | z-score |
| --- | --- |
| GCUGAUGCUCUUAAGCUAUTT against Pelp1 | inactive: 0.143 |
| GCCCAUGUAUCCAAAAGAATT against Cnmd | inactive: -1.59 |
| AGAACAGCUACUUUCUGACTT against Cebpe | inactive: 0.606 |
| CCUCGUGUUAUGCAUGGAATT against Kitl | inactive: -0.0574 |
| GGAUCCUAAGGUCAUGAUCTT against Imp4 | inactive: -0.226 |
| GACUGGGUAACCCAUCCCUTT against Srd5a1 | inactive: -0.203 |
| GGCUCAGUUUACAAACCUGTT against Mbd6 | inactive: -0.969 |
| GGUUUUCAAAAGUGGAGAATT against Ubr1 | inactive: -0.362 |
| CCUGAUCUUAAACAAAGAATT against 2610507B11Rik | inactive: -0.742 |
| GGUUUUUGUCCCAUCUUGGTT against Zc3h12d | inactive: 0.228 |
| GCAGGACAAAUUGGUUGUGTT against Olfr457 | inactive: -0.342 |
| GGUUUCAUUUGGAUUUGCATT against Glyr1 | inactive: 0.491 |
| GGCAAUAGGCAAUGGAAAATT against Vmn2r30 | inactive: -0.751 |
| CGGGAUCUUAGAAGAGCAATT against Ptpre | active: 2.6 |
| GGCAGAGACAAAGAAACUUTT against Trap1 | inactive: -0.0864 |
| UGUGACUAUUGUUACUGUGTT against Olfr1512 | inactive: -1.06 |
| GGAUUCAGCAGCUUCAGAATT against Rex1bd | inactive: 0.221 |
| GAAUUACACACAGGCCUGATT against Olfr1048 | inactive: 0.306 |
| GCCUAACCUGCAUCAGUCATT against Olfr689 | inactive: -1.03 |
| CCCGUCCUCUCAAAAACUATT against Bcl2l14 | inactive: -1.6 |
| GCUAUAGGGACCUCUGUCATT against Cdh5 | active: -2.72 |
| GCAACCGAAUUUUACCUCUTT against Olfr820 | inactive: -0.119 |

Taken from the listing for reference:

| Sequence | z-score |
| --- | --- |
| GCCGUCUUGUGUGUAUCAATT against Olfr1342 | inactive: -0.186 |
| UUCACUUUUUCACUGGAAUTT against Olfr1228 | inactive: -0.264 |

More entries follow.

| Sequence | z-score |
| --- | --- |
| CGAUGCAAAAAGAAUAGACTT against Mark1 | inactive: 0.673 |
| GCACGAGUAUGUUUGACAUTT against Limch1 | inactive: 0.379 |
| GGUGAGGACCAAAAGCUGGTT against Plcd4 | inactive: -1.16 |
| GGAUCACUAUUGCUCCCAUTT against 4930432K21Rik | inactive: -0.752 |
| GCUAUCGGCGUGAGUAACCTT against Gk2 | inactive: -0.294 |
| GGAGAUUUCUUCAUCUUUUTT against Tango6 | inactive: -0.934 |
| GGAAUAGCAUAAACACAGUTT against Epm2aip1 | inactive: -1.28 |
| GGGAAACAGCAAAAUGAAATT against Bcas1 | inactive: -0.677 |
| GUACUAGCUAAUUGGGCCATT against Speer4b | inactive: 0.651 |
| CCCAGAAGGAAUGGCUAAATT against H2ap | inactive: -0.757 |
| CCAAGAUAGUCCCUAUCCCTT against Scamp3 | inactive: 0.346 |
| GGAAAUUGUUUGAGAGGUATT against Edn3 | inactive: -1.89 |
| GGGCAUGGCCUUUACACUUTT against Me3 | inactive: -0.842 |
| GGAGAAGUUCAAAGUGAGGTT against B3gnt3 | inactive: -1.51 |
| GGAAAAAAUCAAGAACAUCTT against Tmc2 | inactive: -0.556 |
| CCUAUGCUUUUUUGUAAGATT against Il13ra2 | inactive: 0.126 |
| GGUCUUCAUACCUGUUCUATT against Zik1 | inactive: 1.33 |
| GGAAUAUUCACAGUCCGAGTT against Zfand3 | active: -2.18 |
| GGUAAAUACAGCAGUCCAGTT against Crls1 | inactive: -0.119 |
| GGCUUUUGAAGCCAUCAAGTT against Mrpl57 | inactive: -1.2 |
| GCACCCUCUUAUGAAUUUATT against Tstd2 | inactive: 0.873 |
| GGAAACUCGUACUUUAUCATT against Igf2r | inactive: 0.266 |

Rewritten as labelled records: part of the list above
CGAUGCAAAAAGAAUAGACTT against Mark1
  z-score: inactive: 0.673
GCACGAGUAUGUUUGACAUTT against Limch1
  z-score: inactive: 0.379
GGUGAGGACCAAAAGCUGGTT against Plcd4
  z-score: inactive: -1.16
GGAUCACUAUUGCUCCCAUTT against 4930432K21Rik
  z-score: inactive: -0.752

Remaining list, next part

| Sequence | z-score |
| --- | --- |
| GGCACUGAAUUCUGUUGCUTT against Slc22a30 | inactive: 0.224 |
| GCUUCCUACCAUGAUGGUCTT against Otol1 | active: 2.13 |
| GGAACAUCUAUUUGUCAUGTT against Olfr310 | inactive: -0.796 |
| CCACUGUUAUCAAGAUCCCTT against Olfr1176 | inactive: 1.88 |
| CCGCAUGUUUGGAAAGGAUTT against Cabp4 | inactive: -0.484 |
| GCUUGGGUUCAGUGUGAAGTT against H2-D1 | inactive: 0.362 |
| GGAUUCUGCCCAAUGAGGATT against Inpp5d | inactive: 0.675 |
| GGGUAUGUGAGUUGGAAGATT against Inpp4a | inactive: -0.748 |
| GGUGUUGUUGCUGAUACCUTT against Rbms3 | inactive: -0.794 |
| GGUAGUGGUACACCUUAAGTT against Ctsc | inactive: -0.481 |
| CGAAAAGCCUCAUUUCAUCTT against Hexim1 | inactive: 0.544 |
| GGAGCAUAUAUAGAAUUAGTT against Mrps22 | active: 3.01 |
| GGAUCCACUGCUUUCAAGUTT against Alg9 | inactive: 1.19 |
| GGCCUUGUAGGAAGCAUUGTT against Slc37a4 | inactive: -0.0497 |
| GCUAAGACACGAUAAACUUTT against Yes1 | inactive: 1.34 |
| CCAUAUGUCACUGCACUUATT against Vwc2 | inactive: 0.51 |
| ACCGAAAAUCUUCAGUACUTT against Gm3696 | inactive: -0.382 |
| GGGCAUUCUAUUAAACAUGTT against Fam53a | inactive: 1.33 |
| CCGGCAUUUACCAUAAUAATT against Mcm2 | inactive: 0.462 |
